Source: publication PMC10787542
These are yes or no findings as the source states them, for the method shown. In cells and extracts the contact can be indirect. A yes stands for co-enrichment or nearness to the bait. Other partners may have been found.

Target: YAP-BirA*-HA (UniProt P46937)
Experiment: proximity labelling; Bio-ID: HEK293T cells stably expressing YAP-BirA*-HA, 50 µM biotin for 24 h; biotinylated proteins captured on streptavidin beads; mass spectrometry

B1: chromatin accessibility complex subunit 1 (CHRAC1) (protein, UniProt Q9NRG0 1-131)
chain: MADVVVGKDKGGEQRLISLPLSRIRVIMKSSPEVSSINQEALVLTAKATELFVQCLATYSYRHGSGKEKKVLTYSDLANTAQQSETFQFLADILPKKILASKYLKMLKEEKREEDEENDNDNESDHDEADS
  binding: binds

B2: AMOTL1 (protein, UniProt Q8IY63 1-956)
chain: MWRAKLRRGTCEPAVKGSPSACYSPSSPVQVLEDSTYFSPDFQLYSGRHETSALTVEATSSIREKVVEDPLCNFHSPNFLRISEVEMRGSEDAAAGTVLQRLIQEQLRYGTPTENMNLLAIQHQATGSAGPAHPTNNFSSTENLTQEDPQMVYQSARQEPQGQEHQVDNTVMEKQVRSTQPQQNNEELPTYEEAKAQSQFFRGQQQQQQQQGAVGHGYYMAGGTSQKSRTEGRPTVNRANSGQAHKDEALKELKQGHVRSLSERIMQLSLERNGAKQHLPGSGNGKGFKVGGGPSPAQPAGKVLDPRGPPPEYPFKTKQMMSPVSKTQEHGLFYGDQHPGMLHEMVKPYPAPQPVRTDVAVLRYQPPPEYGVTSRPCQLPFPSTMQQHSPMSSQTSSASGPLHSVSLPLPLPMALGAPQPPPAASPSQQLGPDAFAIVERAQQMVEILTEENRVLHQELQGYYDNADKLHKFEKELQRISEAYESLVKSTTKRESLDKAMRNKLEGEIRRLHDFNRDLRDRLETANRQLSSREYEGHEDKAAEGHYASQNKEFLKEKEKLEMELAAVRTASEDHRRHIEILDQALSNAQARVIKLEEELREKQAYVEKVEKLQQALTQLQSACEKREQMERRLRTWLERELDALRTQQKHGNGQPANMPEYNAPALLELVREKEERILALEADMTKWEQKYLEESTIRHFAMNAAATAAAERDTTIINHSRNGSYGESSLEAHIWQEEEEVVQANRRCQDMEYTIKNLHAKIIEKDAMIKVLQQRSRKDAGKTDSSSLRPARSVPSIAAATGTHSRQTSLTSSQLAEEKKEEKTWKGSIGLLLGKEHHEHASAPLLPPPPTSALSSIASTTAASSAHAKTGSKDSSTQTDKSAELFWPSMASLPSRGRLSTTPAHSPVLKHPAAKGTAEKLENSPGHGKSPDHRGRVSSLLHKPEFPDGEMMEVLI
  binding: binds
